One substance from article doi:10.1101/2025.02.04.636234 can be followed below.

The target of the test is T1, … TESTA GLABRA 1 (GAL4-BD fusion) (Arabidopsis thaliana (Col-0 cDNA)) (UniProt Q9XGN1).
T1 sequence: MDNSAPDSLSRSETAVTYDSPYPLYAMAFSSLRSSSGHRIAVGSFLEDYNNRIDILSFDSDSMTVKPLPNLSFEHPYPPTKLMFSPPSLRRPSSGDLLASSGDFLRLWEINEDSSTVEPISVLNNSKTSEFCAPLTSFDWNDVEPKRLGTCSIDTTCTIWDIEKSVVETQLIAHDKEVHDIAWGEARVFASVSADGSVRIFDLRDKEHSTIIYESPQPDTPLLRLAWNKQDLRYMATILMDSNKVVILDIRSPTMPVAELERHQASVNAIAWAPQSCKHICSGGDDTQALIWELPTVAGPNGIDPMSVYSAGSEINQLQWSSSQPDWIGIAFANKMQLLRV
Briefly: two-hybrid.

Results are given in words; binding and its absence hold for the method and conditions named. A result given as binding can be weak or reduced; the word gives no strength. Sequences can lack the tags named with a protein.

Regarding “PRR3 (two-hybrid fusion) (Arabidopsis thaliana)”, the binding result was “binds”.
